Experimental data taken from patent US10550151B2, “Cell-penetrating compositions and methods using same” (Yale University, priority 2013, dated 2020).
At least one peptide structure holds a part that was inferred or is arguable (an end, a ring closure or a residue). Where no end group is shown, it is not given here.

Assays:
[1] = system: mustard oil-induced vascular leakage; assay: Modified Miles assay (Evans blue extravasation in mouse ear); assay type: in vivo; settings: mice, 1 mg/kg AP-Cav or same molar dose, 1 h pretreatment, compared with carrier peptide alone
eNOS = target: T1, eNOS (Bos taurus, UniProt P29473); assay: VEGF-induced NO release by cultured BAEC (NO chemiluminescence); assay type: cell-based, bovine; settings: for effect on basal (unstimulated) NO release: six-hour pretreatment, no VEGF
T1 construct: effect of Endo5 fused to Cav (endo5-Cav) on NO release by cultured BAEC; endogenous in cells; host or cells: BAEC (cultured endothelial cells)
T1 sequence (P29473 2-1205 limits assumed): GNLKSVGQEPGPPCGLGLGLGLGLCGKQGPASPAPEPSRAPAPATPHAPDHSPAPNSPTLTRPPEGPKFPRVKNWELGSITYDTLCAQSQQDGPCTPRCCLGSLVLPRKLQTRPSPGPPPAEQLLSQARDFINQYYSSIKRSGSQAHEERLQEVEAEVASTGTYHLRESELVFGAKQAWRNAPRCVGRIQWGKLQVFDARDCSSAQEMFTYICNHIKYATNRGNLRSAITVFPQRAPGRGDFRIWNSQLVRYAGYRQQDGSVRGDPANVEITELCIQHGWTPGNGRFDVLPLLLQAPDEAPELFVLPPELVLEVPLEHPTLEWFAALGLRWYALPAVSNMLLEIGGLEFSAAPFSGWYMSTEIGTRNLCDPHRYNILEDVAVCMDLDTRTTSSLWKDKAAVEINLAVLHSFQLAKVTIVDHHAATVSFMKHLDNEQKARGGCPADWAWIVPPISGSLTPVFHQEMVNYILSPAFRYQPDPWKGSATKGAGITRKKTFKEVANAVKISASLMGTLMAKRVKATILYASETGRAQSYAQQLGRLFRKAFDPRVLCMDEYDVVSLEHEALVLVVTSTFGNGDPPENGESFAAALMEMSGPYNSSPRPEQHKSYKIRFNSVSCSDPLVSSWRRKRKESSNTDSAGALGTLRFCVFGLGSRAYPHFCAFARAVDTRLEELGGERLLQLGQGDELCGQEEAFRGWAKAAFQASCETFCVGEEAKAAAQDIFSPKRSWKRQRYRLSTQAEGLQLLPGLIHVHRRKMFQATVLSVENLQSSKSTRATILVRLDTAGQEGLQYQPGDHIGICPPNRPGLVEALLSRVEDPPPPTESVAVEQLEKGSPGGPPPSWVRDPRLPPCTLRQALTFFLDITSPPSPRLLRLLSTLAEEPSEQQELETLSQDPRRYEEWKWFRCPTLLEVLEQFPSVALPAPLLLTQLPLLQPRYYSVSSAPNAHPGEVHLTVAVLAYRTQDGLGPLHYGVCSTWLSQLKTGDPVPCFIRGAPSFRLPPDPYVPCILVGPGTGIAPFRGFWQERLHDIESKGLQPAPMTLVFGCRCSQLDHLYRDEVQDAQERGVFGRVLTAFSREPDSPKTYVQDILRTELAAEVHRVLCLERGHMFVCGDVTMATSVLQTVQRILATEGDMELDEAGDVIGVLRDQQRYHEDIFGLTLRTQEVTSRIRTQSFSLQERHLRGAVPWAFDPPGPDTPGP
Procedure: Briefly, confluent BAEC were incubated in serum-free DMEM for 6 hours with peptides. Media was removed and fresh serum-free DMEM was added, with or without VEGF (10^−9 M) for 30 min. Media was collected, cells were trypsinized and counted, and nitrites levels in the supernatant were determined by using a Sievers NO chemiluminescence analyzer.
AP-Cav blocks agonist-induced eNOS activity in cultured endothelial cells (Bucci et al., 2000, Nat. Med. 6:1362-7), and this biological activity is dependent on AP-Cav's internalization, dosage and pretreatment time. In the present study, the uptake potential of Endo5 was compared with that of AP by testing the effect of Endo5 fused to Cav (endo5-Cav) on NO release by cultured BAEC.

RQIKIWFQNRRMKWKKDGIWKASFTTFTVTKYWFYR [AP-Cav, reference compound]
inhibition of mustard oil-induced vascular leakage [1]: 37%
effect on basal (unstimulated) NO release (eNOS; peptide 10^-5 M, BAEC): no significant effect

RRPPRDGIWKASFTTFTVTKYWFYR [Endo5-Cav]
inhibition of mustard oil-induced vascular leakage [1]: 58%
rate of uptake relative to AP-Cav (eNOS; inferred from pretreatment times giving similar effect (2 h vs 6 h), 10^-5 M): approximately three
time-dependent effect on VEGF-induced NO release, 4 h incubation (eNOS; peptide 10^-5 M, 4 h, BAEC): complete eNOS inhibition
effect on basal (unstimulated) NO release (eNOS; peptide 10^-5 M, BAEC): no significant effect
